From PMC11906015
No constants are given. Whether binding was seen depends on the method and setting. Binding seen in cells or lysates may run through a third protein. Some entries that bind do so weakly or less than the wild type.

Target: PTEN G132D (phosphatase and tensin homolog, germline variant G132D) (human (endogenous in hiPSC)) (UniProt P60484)
Assay: co-IP; PTEN immunoprecipitated with antibody-loaded magnetic beads from M-PER lysate (75-100 ug protein, 1 ug/uL) of homozygous hiPSCs, overnight at 4°C; cells before and after 3 Gy irradiation; co-precipitated p53 detected by western blot

binding: binds
Substance: p53 (from UniProt P04637 1-393)
